Results are given in words; binding and its absence hold for the method and conditions named. In cells and extracts the contact can be indirect. Some results given as binding are weak or reduced against the parent protein; the word gives no strength. Sequences can lack the tags named with a protein.
Tests used:
[1] = target: T1, MNS3-GFP (Arabidopsis ER-α-mannosidase I fused to GFP) (Arabidopsis thaliana) (UniProt Q93Y37); experiment: FRET or BRET; two-photon FRET-FLIM in N. tabacum leaf epidermal cells treated with latrunculin B; GFP donor, mRFP acceptor; lifetimes taken at individual Golgi bodies
T1 sequence: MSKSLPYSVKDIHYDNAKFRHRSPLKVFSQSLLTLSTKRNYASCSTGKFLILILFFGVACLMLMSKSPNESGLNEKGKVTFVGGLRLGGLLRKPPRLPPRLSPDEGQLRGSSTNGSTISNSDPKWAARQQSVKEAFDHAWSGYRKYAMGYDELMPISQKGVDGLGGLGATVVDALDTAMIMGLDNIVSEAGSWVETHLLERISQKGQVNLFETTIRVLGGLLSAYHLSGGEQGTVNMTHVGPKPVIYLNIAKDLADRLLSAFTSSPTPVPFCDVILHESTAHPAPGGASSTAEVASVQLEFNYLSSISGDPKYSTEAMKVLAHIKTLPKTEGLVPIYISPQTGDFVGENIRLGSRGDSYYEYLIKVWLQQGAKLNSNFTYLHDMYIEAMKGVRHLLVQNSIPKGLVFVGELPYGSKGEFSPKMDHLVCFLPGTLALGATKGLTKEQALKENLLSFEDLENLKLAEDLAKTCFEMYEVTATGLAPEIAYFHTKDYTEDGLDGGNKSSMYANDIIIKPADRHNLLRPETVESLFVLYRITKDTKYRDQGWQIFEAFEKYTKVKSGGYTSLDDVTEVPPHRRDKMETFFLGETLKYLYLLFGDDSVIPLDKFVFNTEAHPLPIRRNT

[2] = target: T1, MNS3-GFP (Arabidopsis ER-α-mannosidase I fused to GFP) (Arabidopsis thaliana); experiment: co-IP; GFP baits co-expressed with mRFP fusions in N. benthamiana leaves; extracts in 1x PBS, 1% Triton X-100, protease inhibitors; GFP-Trap-A beads, 60-90 min at 4 °C; immunoblot with anti-GFP and anti-mRFP
[3] = target: T2, MNS3-GFP-HDEL (full-length MNS3 C-terminally tagged with GFP and the ER retrieval signal HDEL) (Arabidopsis thaliana) (UniProt Q93Y37); experiment: as above
T2 sequence: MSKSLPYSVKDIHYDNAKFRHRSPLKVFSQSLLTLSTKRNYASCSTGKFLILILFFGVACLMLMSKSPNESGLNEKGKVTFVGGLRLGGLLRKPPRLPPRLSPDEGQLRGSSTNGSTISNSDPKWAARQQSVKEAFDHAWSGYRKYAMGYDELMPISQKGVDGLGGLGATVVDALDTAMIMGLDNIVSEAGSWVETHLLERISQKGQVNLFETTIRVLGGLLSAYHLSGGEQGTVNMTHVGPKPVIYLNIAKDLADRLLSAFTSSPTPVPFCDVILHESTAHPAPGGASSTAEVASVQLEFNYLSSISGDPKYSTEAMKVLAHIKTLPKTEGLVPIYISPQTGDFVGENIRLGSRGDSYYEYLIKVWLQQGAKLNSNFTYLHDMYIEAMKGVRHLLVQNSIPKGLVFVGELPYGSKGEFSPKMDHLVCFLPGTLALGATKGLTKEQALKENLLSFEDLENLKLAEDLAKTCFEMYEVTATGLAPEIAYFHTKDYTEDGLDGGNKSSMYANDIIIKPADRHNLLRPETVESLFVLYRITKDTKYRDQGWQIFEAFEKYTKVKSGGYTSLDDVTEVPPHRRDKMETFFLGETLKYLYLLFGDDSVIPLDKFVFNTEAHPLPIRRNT

binding [1]: binds weakly
binding [2]: binds weakly
binding [3]: binds
B1: MNS1-mRFP (Arabidopsis Golgi-α-mannosidase I MNS1 fused to mRFP) (enzyme, UniProt Q9C512 1-560)
chain: MARSRSISGYGIWKYLNPAYYLRRPRRLALLFIVFVSVSMLVWDRINLAREHEVEVFKLNEEVSRLEQMLEELNGGVGNKPLKTLKDAPEDPVDKQRRQKVKEAMIHAWSSYEKYAWGKDELQPRTKDGTDSFGGLGATMVDSLDTLYIMGLDEQFQKAREWVASSLDFDKDYDASMFETTIRVVGGLLSAYDLSGDKMFLEKAKDIADRLLPAWNTPTGIPYNIINLRNGNAHNPSWAAGGDSILADSGTEQLEFIALSQRTGDPKYQQKVEKVITELNKNFPADGLLPIYINPDNANPSYSTTTFGAMGDSFYEYLLKVWVQGNKTSAVKPYRDMWEKSMKGLLSLVKKSTPSSFTYICEKNGNNLIDKMDELACFAPGMLALGASGYGPDEEKKFLSLAGELAWTCYNFYQSTPTKLAGENYFFTAGQDMSVGTSWNILRPETVESLFYLWRLTGNKTYQEWGWNIFQAFEKNSRVESGYVGLKDVNTGAKDNKMQSFFLAETLKYLYLLFSPSSVISLDEWVFNTEAHPLKIVARNDPRKPTIALRQRKFGHQINV
